Test results reported in the supplement of paper PMC12819154, “High-throughput peptide-centric local stability assay extends protein–ligand identification to membrane proteins, tissues and bacteria” (Nature Structural & Molecular Biology, 2025).
The list shows a part of the results. Most values lie at the level of the controls, where differences are scatter.

Sequences of proteins named here, by UniProt entry; tags and fusion partners are left off. A change or cut given only in a name is not applied to a line headed by its entry.
UniProt Q91VM3: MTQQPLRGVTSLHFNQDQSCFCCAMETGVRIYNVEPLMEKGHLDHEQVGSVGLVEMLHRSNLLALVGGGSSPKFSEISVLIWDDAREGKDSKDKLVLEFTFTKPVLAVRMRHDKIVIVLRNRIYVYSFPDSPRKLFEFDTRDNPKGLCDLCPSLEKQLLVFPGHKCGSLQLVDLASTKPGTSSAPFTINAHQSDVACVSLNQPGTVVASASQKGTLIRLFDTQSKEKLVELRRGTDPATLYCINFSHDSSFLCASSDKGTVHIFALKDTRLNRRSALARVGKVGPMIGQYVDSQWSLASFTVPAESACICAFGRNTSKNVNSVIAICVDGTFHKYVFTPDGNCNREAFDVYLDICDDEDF
UniProt Q921U8: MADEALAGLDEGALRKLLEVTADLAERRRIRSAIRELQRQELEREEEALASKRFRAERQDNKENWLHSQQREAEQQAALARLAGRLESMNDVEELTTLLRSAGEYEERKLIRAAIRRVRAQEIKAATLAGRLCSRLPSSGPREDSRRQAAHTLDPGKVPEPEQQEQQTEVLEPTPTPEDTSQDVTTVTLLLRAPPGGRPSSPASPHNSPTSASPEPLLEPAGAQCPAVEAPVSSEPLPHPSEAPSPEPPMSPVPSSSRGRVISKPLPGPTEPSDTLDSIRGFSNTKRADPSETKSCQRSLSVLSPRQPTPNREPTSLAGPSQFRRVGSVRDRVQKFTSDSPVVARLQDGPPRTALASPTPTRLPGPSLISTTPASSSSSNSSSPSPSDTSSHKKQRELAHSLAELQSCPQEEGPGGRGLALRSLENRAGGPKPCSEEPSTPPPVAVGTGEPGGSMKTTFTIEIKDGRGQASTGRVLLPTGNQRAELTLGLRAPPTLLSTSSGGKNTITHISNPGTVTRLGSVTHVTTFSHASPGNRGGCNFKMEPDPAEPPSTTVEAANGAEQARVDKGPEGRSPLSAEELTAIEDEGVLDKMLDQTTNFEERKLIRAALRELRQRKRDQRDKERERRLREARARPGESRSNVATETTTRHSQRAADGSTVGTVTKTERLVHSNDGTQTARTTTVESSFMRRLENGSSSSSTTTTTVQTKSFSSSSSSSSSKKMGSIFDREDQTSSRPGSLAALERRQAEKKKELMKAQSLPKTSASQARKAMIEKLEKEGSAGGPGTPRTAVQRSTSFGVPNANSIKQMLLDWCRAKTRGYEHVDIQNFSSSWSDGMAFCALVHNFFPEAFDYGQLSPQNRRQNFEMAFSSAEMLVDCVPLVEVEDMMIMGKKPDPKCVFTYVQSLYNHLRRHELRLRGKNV
UniProt Q8VD57: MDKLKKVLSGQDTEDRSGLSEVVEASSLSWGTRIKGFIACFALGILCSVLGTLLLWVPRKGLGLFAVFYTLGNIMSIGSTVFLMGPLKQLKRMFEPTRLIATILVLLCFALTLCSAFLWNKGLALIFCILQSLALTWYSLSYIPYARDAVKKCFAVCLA
UniProt Q8VD66: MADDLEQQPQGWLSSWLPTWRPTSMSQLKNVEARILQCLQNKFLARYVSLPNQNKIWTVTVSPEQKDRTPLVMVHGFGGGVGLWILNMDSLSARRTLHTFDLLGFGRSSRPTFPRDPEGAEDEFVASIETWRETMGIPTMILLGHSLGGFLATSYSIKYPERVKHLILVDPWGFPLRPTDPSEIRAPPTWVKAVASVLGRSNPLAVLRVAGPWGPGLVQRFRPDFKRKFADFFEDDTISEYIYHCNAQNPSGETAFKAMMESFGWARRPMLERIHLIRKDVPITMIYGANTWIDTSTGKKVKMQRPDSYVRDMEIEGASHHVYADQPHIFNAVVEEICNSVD
UniProt Q91WN1: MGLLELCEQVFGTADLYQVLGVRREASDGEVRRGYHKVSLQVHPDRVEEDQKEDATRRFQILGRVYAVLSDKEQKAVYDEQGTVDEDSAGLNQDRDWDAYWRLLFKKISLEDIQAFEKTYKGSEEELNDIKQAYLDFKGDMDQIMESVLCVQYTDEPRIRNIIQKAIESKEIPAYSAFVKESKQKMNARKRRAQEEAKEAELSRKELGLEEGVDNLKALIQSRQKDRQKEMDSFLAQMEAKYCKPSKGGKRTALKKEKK
UniProt Q922H9: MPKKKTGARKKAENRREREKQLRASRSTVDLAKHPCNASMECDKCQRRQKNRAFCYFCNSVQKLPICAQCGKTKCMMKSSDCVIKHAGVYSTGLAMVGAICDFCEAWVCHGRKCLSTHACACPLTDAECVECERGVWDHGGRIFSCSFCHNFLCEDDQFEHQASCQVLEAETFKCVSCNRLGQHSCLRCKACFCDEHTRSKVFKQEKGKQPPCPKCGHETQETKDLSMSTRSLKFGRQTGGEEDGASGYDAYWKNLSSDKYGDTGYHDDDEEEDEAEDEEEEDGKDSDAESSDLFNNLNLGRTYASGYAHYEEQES
UniProt Q99J47: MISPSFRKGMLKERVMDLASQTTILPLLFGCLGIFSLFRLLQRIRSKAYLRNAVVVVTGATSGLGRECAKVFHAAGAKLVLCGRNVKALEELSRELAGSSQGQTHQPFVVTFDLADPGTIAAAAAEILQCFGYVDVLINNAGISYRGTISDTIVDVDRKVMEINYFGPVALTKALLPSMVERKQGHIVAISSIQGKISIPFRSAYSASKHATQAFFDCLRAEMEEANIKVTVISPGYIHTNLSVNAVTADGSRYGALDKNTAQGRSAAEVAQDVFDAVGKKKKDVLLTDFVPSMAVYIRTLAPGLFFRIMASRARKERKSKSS
UniProt Q91ZN5: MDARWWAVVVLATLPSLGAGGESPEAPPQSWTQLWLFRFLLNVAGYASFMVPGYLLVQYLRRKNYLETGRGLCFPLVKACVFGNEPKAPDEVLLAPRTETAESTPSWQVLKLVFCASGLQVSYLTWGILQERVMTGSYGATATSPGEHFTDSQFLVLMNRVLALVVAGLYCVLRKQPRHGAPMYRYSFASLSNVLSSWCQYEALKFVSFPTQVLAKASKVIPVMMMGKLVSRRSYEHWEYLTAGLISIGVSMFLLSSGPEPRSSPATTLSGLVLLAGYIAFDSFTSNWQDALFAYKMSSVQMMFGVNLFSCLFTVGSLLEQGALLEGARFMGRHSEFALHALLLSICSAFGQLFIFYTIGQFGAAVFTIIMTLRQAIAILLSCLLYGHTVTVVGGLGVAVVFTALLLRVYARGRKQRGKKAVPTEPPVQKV
UniProt Q8VIJ6: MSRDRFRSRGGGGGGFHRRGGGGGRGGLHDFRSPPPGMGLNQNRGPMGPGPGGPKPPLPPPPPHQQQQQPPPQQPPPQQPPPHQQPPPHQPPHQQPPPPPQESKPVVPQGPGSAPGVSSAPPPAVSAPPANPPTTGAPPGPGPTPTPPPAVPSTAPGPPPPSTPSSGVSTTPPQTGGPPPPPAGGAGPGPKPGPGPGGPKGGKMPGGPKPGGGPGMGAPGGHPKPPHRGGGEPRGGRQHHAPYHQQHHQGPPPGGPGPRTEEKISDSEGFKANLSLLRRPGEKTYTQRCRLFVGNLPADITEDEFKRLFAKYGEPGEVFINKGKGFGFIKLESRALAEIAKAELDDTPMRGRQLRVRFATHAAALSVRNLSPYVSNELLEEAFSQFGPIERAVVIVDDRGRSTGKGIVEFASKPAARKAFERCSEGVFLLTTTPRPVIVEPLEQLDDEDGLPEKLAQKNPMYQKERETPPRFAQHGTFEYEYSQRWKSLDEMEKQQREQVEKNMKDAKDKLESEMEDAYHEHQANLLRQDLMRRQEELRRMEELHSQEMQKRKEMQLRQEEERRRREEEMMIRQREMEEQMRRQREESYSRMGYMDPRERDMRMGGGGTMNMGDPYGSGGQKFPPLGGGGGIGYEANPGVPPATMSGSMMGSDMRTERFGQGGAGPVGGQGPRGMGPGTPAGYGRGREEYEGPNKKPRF
UniProt Q91V16: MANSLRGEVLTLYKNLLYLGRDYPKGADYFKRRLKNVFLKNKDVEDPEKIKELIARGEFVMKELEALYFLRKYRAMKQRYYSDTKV
UniProt Q8VI75: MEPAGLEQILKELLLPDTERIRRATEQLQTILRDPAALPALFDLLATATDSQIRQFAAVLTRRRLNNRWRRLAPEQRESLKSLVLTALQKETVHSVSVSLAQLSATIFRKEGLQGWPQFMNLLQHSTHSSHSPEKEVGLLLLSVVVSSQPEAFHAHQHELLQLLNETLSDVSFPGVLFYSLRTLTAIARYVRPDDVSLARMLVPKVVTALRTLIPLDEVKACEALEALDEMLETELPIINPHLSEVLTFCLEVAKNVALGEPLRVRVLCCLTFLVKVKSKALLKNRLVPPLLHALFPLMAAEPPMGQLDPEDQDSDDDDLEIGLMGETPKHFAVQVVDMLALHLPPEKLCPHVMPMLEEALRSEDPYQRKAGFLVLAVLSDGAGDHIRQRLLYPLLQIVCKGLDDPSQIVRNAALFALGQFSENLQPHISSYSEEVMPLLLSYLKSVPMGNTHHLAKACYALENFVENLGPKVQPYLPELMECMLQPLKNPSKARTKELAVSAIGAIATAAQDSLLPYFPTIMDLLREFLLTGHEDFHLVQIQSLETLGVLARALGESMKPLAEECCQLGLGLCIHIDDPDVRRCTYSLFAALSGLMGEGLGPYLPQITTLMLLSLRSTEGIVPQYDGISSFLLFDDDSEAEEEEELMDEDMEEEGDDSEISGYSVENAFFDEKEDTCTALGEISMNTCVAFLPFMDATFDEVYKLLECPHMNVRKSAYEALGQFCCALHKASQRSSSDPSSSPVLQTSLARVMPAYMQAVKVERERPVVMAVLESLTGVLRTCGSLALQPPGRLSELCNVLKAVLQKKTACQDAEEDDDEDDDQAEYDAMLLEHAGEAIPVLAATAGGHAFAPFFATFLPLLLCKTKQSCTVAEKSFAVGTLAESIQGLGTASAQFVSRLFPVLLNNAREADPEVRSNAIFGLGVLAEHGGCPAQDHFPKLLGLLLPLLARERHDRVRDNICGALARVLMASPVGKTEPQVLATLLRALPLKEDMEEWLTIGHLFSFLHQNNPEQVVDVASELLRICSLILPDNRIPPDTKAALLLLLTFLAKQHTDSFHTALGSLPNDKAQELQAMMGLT
UniProt Q93092: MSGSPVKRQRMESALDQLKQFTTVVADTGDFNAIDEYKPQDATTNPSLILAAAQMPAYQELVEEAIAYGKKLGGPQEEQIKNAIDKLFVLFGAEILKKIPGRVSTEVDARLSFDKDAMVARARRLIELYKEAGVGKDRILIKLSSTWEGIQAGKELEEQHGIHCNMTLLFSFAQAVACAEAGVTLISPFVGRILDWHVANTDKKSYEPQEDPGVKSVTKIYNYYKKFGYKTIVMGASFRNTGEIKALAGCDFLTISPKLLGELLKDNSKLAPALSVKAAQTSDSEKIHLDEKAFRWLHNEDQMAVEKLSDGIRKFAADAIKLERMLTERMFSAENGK
UniProt Q923X1: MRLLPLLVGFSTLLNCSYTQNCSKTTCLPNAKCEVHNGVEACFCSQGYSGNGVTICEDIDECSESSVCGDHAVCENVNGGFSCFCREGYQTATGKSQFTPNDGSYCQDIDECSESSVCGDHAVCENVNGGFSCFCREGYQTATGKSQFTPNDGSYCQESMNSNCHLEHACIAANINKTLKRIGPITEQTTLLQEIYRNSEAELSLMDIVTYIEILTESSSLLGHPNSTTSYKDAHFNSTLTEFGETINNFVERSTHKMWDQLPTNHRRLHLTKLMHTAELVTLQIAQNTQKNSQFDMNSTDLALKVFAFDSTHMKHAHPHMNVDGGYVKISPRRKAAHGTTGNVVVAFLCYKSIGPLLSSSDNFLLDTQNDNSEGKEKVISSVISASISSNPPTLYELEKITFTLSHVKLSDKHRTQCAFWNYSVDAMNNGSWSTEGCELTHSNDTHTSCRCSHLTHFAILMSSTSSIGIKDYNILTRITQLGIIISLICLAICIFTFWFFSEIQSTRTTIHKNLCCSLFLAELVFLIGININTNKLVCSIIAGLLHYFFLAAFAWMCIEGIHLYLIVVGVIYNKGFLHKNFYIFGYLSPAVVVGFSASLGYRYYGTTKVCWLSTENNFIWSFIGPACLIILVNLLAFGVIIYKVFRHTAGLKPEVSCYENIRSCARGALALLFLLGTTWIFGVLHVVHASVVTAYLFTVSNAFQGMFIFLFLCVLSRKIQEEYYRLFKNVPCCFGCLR
UniProt Q925N0: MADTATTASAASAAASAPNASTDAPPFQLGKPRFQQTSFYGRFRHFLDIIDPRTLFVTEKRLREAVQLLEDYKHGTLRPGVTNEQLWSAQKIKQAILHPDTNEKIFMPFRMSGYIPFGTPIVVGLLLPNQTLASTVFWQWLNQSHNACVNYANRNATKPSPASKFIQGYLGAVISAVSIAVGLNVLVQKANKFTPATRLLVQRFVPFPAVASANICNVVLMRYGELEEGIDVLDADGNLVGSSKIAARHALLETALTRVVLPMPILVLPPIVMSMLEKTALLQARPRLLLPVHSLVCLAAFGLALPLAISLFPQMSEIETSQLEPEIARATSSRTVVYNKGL
UniProt Q8VEA4: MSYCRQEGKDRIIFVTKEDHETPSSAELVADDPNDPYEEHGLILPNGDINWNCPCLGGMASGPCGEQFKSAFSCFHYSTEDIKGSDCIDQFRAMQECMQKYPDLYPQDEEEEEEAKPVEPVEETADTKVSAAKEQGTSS

Compound: CN[C@@H]1C[C@H]2O[C@@](C)([C@@H]1OC)n1c3ccccc3c3c4c(c5c6ccccc6n2c5c31)C(=O)NC4 [staurosporine]
Test: log2 fold change of pooled soluble protein (PISA), ligand vs vehicle (log2 ratio); higher = more thermally stabilized
Conditions: ligand concentration: 20 uM; assay format: PISA pool 52.9/55.5/58.6 C

Target | log2 fold change of pooled soluble protein
UniProt Q91VM3 | -0.0762
UniProt Q8VCX1 | 0.0962
UniProt Q8VCN9 | -0.229
UniProt Q921U8 | 0.0938
UniProt Q91VW5 | 0.0922
UniProt Q91Z58 | -0.00962
UniProt Q91YX5 | 0.053
UniProt Q91X91 | -0.0967
UniProt Q91WK1 | -0.0581
UniProt Q91Y47 | 0.144
UniProt Q8VCM8 | -0.235
UniProt Q91VW3 | 0.00985
UniProt Q91W98 | -0.139
UniProt Q91XE8 | -0.0687
UniProt Q8VD57 | -0.0202
UniProt Q8VD66 | 0.0944
UniProt Q91VU1 | 0.0966
UniProt Q91V92 | -0.0416
UniProt Q91WN1 | -0.021

A different layout for some results above.
Target	log2 fold change of pooled soluble protein
UniProt Q8VCX1	0.0962
UniProt Q921U8	0.0938
UniProt Q91Z58	-0.00962
UniProt Q91YX5	0.053
UniProt Q91X91	-0.0967
UniProt Q8VCM8	-0.235
UniProt Q91W98	-0.139
UniProt Q91VU1	0.0966
UniProt Q91V92	-0.0416
UniProt Q91WN1	-0.021

Further records:

Target | log2 fold change of pooled soluble protein
UniProt Q922H9 | -0.156
UniProt Q8VEJ4 | -0.116
UniProt Q99J47 | 0.0765
UniProt Q91ZN5 | -0.104
UniProt Q922Q8 | -0.0151
UniProt Q8VIJ6 | -0.0378
UniProt Q921F2 | -0.143
UniProt Q91V16 | 0.000228
UniProt Q8VCS0 | 0.00653
UniProt Q8VI75 | -0.00788
UniProt Q93092 | -0.0627
UniProt Q923X1 | 0.1
UniProt Q922Q1 | -0.02
UniProt Q8VHG0 | 0.267
UniProt Q925I1 | 0.0815
UniProt Q91X77 | 0.0775
UniProt Q925N0 | 0.463
UniProt Q8VEA4 | 0.219
